According to paper PMC10901097, “Vanillin derivatives as antiamnesic agents in scopolamine-induced memory impairment in mice” (Heliyon, 2024):

Test system: scopolamine-induced memory impairment in mice
Assay: Novel object recognition test (NORT), scopolamine-induced amnesia
Format: in vivo, Albino mice
Description: Albino mice (20–23 g b. w.) were brought from National Institute of Health, Islamabad, Pakistan, and the mice were retained in animal house at University of Malakand at Department of Pharmacy for acclimation. Normal pellet diet and water were provided to all the animals and were kept for 12 h of light-dark cycle under normal laboratory conditions (temperature in a range of 25 ± 2 °C, humidity of 56–66%). All protocols employed were approved from the Ethical Committee vide notification Pharm/EC-QRE/10–31/25 as per approved “Animal Bye-Laws 2008, Scientific Procedures Issue-I of the Malakand University” and the UK animal scientific procedure act (1986).
After acclimatization, the animals were grouped into different groups consisting of 6 animals each. […] It also can induce amyloid β deposition, oxidative stress, synaptic dysfunction, and learning/memory impairment in experimental animals. […] The treatment was carried out continuously for 7 days and after treatment schedule, the animals were subjected to behavioural study using Y-maze and NORT.
NORT was used to assess the effect of vanillin derivatives on memory in mice model. The apparatus employed in this test measures 40 cm wide, 40 cm long, and 66 cm tall. NORT entails a two-day habituation period, followed by a two-day training session and finally a testing or experimental period. During habituation, an empty box was used, two identical objects were placed in two corners of the box during training, and one unique object was replaced during testing as shown in Fig. 3. To test long-term memory in mice, a five-day washout period was provided before the NORT. The time spent in each phase was manually documented using a stopwatch.
Fig. 3 Procedures for novel object recognition (NORT). The three phases of the test are shown. In NORT, object identity is changed between training and test; object location is remained unchanged.

CN1[C@@H]2C[C@@H](OC(=O)[C@H](CO)c3ccccc3)C[C@H]1[C@@H]1O[C@@H]12 [Scopolamine]
time spent with the familiar object F in NOR test (scopolamine group compared with control group treated with galantamine, P < 0.001): significant increase | latency time to discover familiar object (F) in NOR test (scopolamine group compared with control group treated with galantamine, p < 0.001): significant increase | discrimination index in NOR test (scopolamine-treated group): 1.43%
